{
  "source": "patent US20260274959A1",
  "about": "(FUJIAN MEDICAL UNIVERSITY, published 2026)",
  "key": {"[1]": {"target": "T1, mouse B7-H4 IgV-like domain protein (from a laboratory of Fujian Medical University) (mouse) (UniProt Q7TSP5)", "T1 sequence (looked up)": "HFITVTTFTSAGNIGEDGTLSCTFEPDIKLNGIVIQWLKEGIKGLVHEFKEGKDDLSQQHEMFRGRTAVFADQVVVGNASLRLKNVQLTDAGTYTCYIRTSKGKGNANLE", "test": "ELISA, protein coated at 2 µg/mL, antibody at 10 µg/mL"}, "[2]": {"target": "T2, mouse B7-H4 protein (from a laboratory of Fujian Medical University) (mouse) (UniProt Q7TSP5)", "T2 sequence (looked up)": "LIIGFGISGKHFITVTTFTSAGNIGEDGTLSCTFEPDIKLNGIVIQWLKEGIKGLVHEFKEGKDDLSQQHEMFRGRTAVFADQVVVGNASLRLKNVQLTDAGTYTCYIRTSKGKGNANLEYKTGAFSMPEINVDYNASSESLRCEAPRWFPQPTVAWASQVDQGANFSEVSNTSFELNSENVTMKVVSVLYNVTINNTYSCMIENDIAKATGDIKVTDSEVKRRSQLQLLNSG", "test": "ELISA, protein coated at 2 µg/mL, antibody at 10 µg/mL"}},
  "note": "These are yes or no findings as the source states them, for the method shown. Some results given as binding are weak or reduced against the parent protein; the word gives no strength.",
  "data": [
    {"binder": "Npsc-A8 full-length antibody (antibody, V domains shown, also called Npsc-A8 antibody) VH: QVQLQESGGGLMQVGGSLRLSCTASGFVFGDYGMNWVRQAPGKGLEWVSLIDTYGASTFYADSVKGRFTISRDNSKQTVFLQMDGLRADDTAMYFCAKPILMFPAFDLWGPGTMVTVSS VL: DVVMTQSPSSLSASVGDRVTITCRASQGIRNDLAWYQKKPGKAPKRLIYAASSLQSGVPSRFSGSGYGAEFSLTISSLQPEDFATYFCLHHSQYPWTFGQGTKVDIKR", "values": [
      {"measurement": "binding", "setting": "[1]", "result": "binds"},
      {"measurement": "binding", "setting": "[2]", "result": "binds"}
    ]}
  ]
}
